# At least one compound was matched to its structure with a doubt left.
# System: organic anion transporters of J774 cells
# Experiment: Intracellular Lucifer Yellow accumulation during ATP permeabilization of J774 cells
# Type: cell-based, mouse
# Conditions: added together with 0.5 mg/ml Lucifer Yellow and 5 mM ATP
# Procedure: The cells were incubated in phosphate buffered saline with divalent cations (PBS) containing 0.5 mg/ml Lucifer Yellow, 5 mM ATP and other compounds, at 37° C. as indicated in the text. The wells were washed with cold phosphate buffered saline without divalent cations (PD) 3 times, and plates were immersed successively in three beakers containing 1,000 ml cold PD. The first beaker also contained 0.1% bovine serum albumin. The cells then were lysed in 0.05% Triton X-100, and fluorescence was measured in a fluorescence spectrophotometer using an excitation wavelength of 430 nm and an emission wavelength 540 nm. Total cell protein was measured by a modification of the Lowery method. (6) Results were expressed as ng Lucifer Yellow/mg protein.
# An assay to identify competitive inhibitors of the organic anion transporters that mediate the secretion of Lucifer Yellow was developed. It was reasoned that any substrate of the organic anion transporter small enough to enter the cells through ATP-induced pores, when added together with Lucifer Yellow during ATP permeabilization, would compete with Lucifer Yellow for efflux and cause higher intracellular accumulation of Lucifer Yellow. This assay was used to determine whether various substrates for other organic anion transporters competed with Lucifer Yellow for secretion by J774 cells.
structure (smiles),measurement,value
Nc1ccc(C(=O)NCC(=O)O)cc1 [paraaminohippurate],effect on intracellular accumulation of Lucifer Yellow during ATP permeabilization,had no effect

# — US5422372A, “Method of increasing intracellular accumulation of hydrophilic anionic agents using gemfibrizol” (priority 1993, dated 1995)
